Test: Fluorescence of the compounds at a series of concentrations
Settings: compound's own fluorescence in the NAMPT assay read-out

Row | Structure (SMILES) | Concentration at which compound fluorescence was detected
1 | O=C(NCCCN1CCCC1=O)c1ccc(N2CCc3ccccc32)s1 [G122-1637] | > 1562 nM
2 | CCCn1c(=O)c(-c2ccc(C(=O)NCc3cccnc3)cc2)nc2ccccc21 [M049-0244] | > 1562 nM
